Values from PubChem BioAssay AID686938 (Drosophila RNAi Screening Center, 2013).
Screen: 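Knock-downs reducing store-operated calcium influx in Drosophila cells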 (primary screen). Cell system: Drosophila S2R+ cells. Knock-down reagent: long dsRNA against Drosophila genes, about 0.25 µg dsRNA per well, roughly 10,000 cells. Time to read-out: 5 days of knock-down before the calcium assay. Treatment: thapsigargin (SERCA pump blocker) to empty calcium stores; entry signal taken 4 min after adding it. Measured: 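Per-well fluo-4 fluorescence in two replicates, unnormalised, measured in resting cells and 4 min after store depletion by the SERCA blocker thapsigargin; ratio of the two present in few wells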. Reading the numbers: calcium entry signal: higher = stronger calcium signal after store depletion; resting calcium signal: higher = higher resting calcium signal. Hit rule: 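Hit if the duplicate-averaged plate z-score for entry over resting signal is under −3; wells with weak total dye signal (Fmax z < −2) or more than 5 off-targets removed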. Meaning of the calls: active = strongly reduced calcium entry; inactive = no strong reduction.
The deposit covers about 23,000 reagents; below is an unselected part of those with a known target gene and a result. Of all reagents, 75 (0.33%) got an active call. 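Raw plate signals without normalisation; calls rest on plate z-scores that were not deposited; ratio present for only 364 wells.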 Not given: the dose of the treatment.

gene knocked down | amplicon | calcium entry signal, replicate 1 (fluorescence units) | calcium entry signal, replicate 2 (fluorescence units) | resting calcium signal, replicate 1 (fluorescence units) | resting calcium signal, replicate 2 (fluorescence units) | activity call
nmdyn-D7 | DRSC17016 | 3.69e7 | 3.42e7 | 1.82e7 | 1.73e7 | inactive
Calx | DRSC13457 | 5.98e7 | 3.84e7 | 2.50e7 | 1.59e7 | inactive
Calx | DRSC13459 | 6.73e7 | 3.32e7 | 3.13e7 | 1.69e7 | inactive
Calx | DRSC16599 | 4.16e7 | 4.25e7 | 5.27e7 | 1.73e7 | inactive
Calx | DRSC21850 | 2.45e7 | 4.96e7 | 1.24e7 | 2.07e7 | inactive
Nup50 | DRSC06827 | 3.71e7 | 3.61e7 | 1.61e7 | 1.52e7 | inactive
CG17574 | DRSC06681 | 3.52e7 | 7.99e7 | 1.88e7 | 3.00e7 | inactive
CG9825 | DRSC04569 | 4.28e7 | 4.19e7 | 2.11e7 | 1.90e7 | inactive
CG8673 | DRSC03105 | 2.68e7 | 4.74e7 | 1.37e7 | 2.07e7 | inactive
sqa | DRSC06693 | 3.36e7 | 3.41e7 | 1.49e7 | 1.60e7 | inactive
sqa | DRSC21635 | 3.26e7 | 3.11e7 | 1.64e7 | 1.55e7 | inactive
Targ3 | DRSC11471 | 3.16e7 | 3.23e7 | 1.38e7 | 1.35e7 | inactive
CG7295 | DRSC00699 | 2.99e7 | 3.02e7 | 1.39e7 | 1.39e7 | inactive
RpL18A | DRSC07538 | 1.64e7 | 1.15e7 | 1.20e7 | 8.77e6 | inactive
CG34008 | DRSC13428 | 3.23e7 | 2.36e7 | 1.69e7 | 1.22e7 | inactive
Septin2 | DRSC16855 | 3.73e7 | 4.30e7 | 1.85e7 | 1.98e7 | inactive
MetRS | DRSC22533 | 3.56e7 | 2.66e7 | 1.73e7 | 1.20e7 | inactive
CG9876 | DRSC04586 | 4.11e7 | 4.82e7 | 2.04e7 | 2.10e7 | inactive
Tango4 | DRSC19786 | 2.06e7 | 2.33e7 | 1.30e7 | 1.48e7 | inactive
CG31960 | DRSC00281 | 3.77e7 | 3.86e7 | 1.78e7 | 1.69e7 | inactive
noi | DRSC12383 | 1.59e7 | 1.60e7 | 1.08e7 | 1.07e7 | inactive
CG3581 | DRSC15499 | 3.79e7 | 4.06e7 | 5.65e7 | 1.87e7 | inactive
Nf-YA | DRSC10385 | 1.88e7 | 2.21e7 | 1.11e7 | 1.23e7 | inactive
Nf-YA | DRSC23126 | 4.17e7 | 3.40e7 | 2.14e7 | 1.59e7 | inactive
Bicra | DRSC14417 | 3.53e7 | 5.58e7 | 1.84e7 | 2.53e7 | inactive
CG4229 | DRSC10407 | 3.04e7 | 3.48e7 | 1.32e7 | 2.47e7 | inactive
Jon25Bi | DRSC03434 | 3.95e7 | 3.39e7 | 1.86e7 | 1.69e7 | inactive
mbf1 | DRSC11365 | 2.74e7 | 3.62e7 | 1.27e7 | 2.63e7 | inactive
step | DRSC03694 | 2.99e7 | 3.59e7 | 1.42e7 | 1.65e7 | inactive
step | DRSC03699 | 5.25e7 | 3.58e7 | 2.58e7 | 1.52e7 | inactive
Aladin | DRSC18121 | 3.72e7 | 3.88e7 | 1.80e7 | 1.84e7 | inactive
beta-Man | DRSC12208 | 3.95e7 | 4.31e7 | 1.85e7 | 3.02e7 | inactive
beta-Man | DRSC12209 | 3.17e7 | 4.09e7 | 1.55e7 | 1.85e7 | inactive
Csas | DRSC22390 | 2.58e7 | 2.49e7 | 1.32e7 | 1.02e7 | inactive
CG9297 | DRSC16469 | 2.00e7 | 2.50e7 | 9.63e6 | 1.15e7 | inactive
spidey | DRSC17932 | 2.05e7 | 3.62e7 | 1.04e7 | 1.61e7 | inactive
CG11670 | DRSC14342 | 2.27e7 | 3.17e7 | 1.18e7 | 2.98e7 | inactive
Ocrl | DRSC18576 | 3.60e7 | 4.85e7 | 1.77e7 | 2.41e7 | inactive
Bdbt | DRSC15218 | 2.79e7 | 3.40e7 | 6.68e7 | 1.52e7 | inactive
CG43318 | DRSC14999 | 2.80e7 | 3.99e7 | 1.42e7 | 5.74e7 | inactive

2 neighbouring records from above, quoted:
gene knocked down | amplicon | calcium entry signal, replicate 1 (fluorescence units) | calcium entry signal, replicate 2 (fluorescence units) | resting calcium signal, replicate 1 (fluorescence units) | resting calcium signal, replicate 2 (fluorescence units) | activity call
CG17574 | DRSC06681 | 3.52e7 | 7.99e7 | 1.88e7 | 3.00e7 | inactive
CG9825 | DRSC04569 | 4.28e7 | 4.19e7 | 2.11e7 | 1.90e7 | inactive
